{"source": "PubChem BioAssay AID504804 (Drosophila RNAi Screening Center, 2011)", "screen": "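dsRNAs that improve Kc cell survival under doxorubicin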 (primary screen)", "cell system": "Drosophila Kc cells", "knock-down reagent": "long dsRNA against Drosophila genes, 0.5 µg dsRNA per well", "time to read-out": "96 h (48 h knock-down, then 48 h drug)", "challenge": "doxorubicin 5 µg/ml for 48 h, added 48 h after dsRNA", "detection": "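Viability measured as cellular ATP by luminescence after 48 h knock-down then 48 h doxorubicin at 5 µg/ml; unnormalised plate counts for each replicate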", "scale": "raw ATP luminescence: higher = more viable cells, protection from doxorubicin", "hit rule": "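Active when both duplicate wells lie at least 2 SD above the plate mean and protection is confirmed by rescreening and independent dsRNAs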", "note": "In all, the deposit lists about 19,000 reagents; below is an unselected part of those with a known target gene and a result. In the full data, 47 (0.25%) were called active. 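Signals are raw, not normalised; exact z-scores behind calls not deposited; actives needed confirmation, so some wells reaching 2 SD are inactive.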 Names joined by + are all predicted targets of the reagent."}
The first 3 records as a preview:
{"predicted target": "CG42821 + CG42822", "amplicon": "DRSC13231", "raw ATP luminescence, replicate 1": 2.20e5, "raw ATP luminescence, replicate 2": 2.55e5, "call": "inactive"}
{"predicted target": "CG42821 + CG42822", "amplicon": "DRSC13232", "raw ATP luminescence, replicate 1": 1.90e5, "raw ATP luminescence, replicate 2": 2.40e5, "call": "inactive"}
{"predicted target": "Apc", "amplicon": "DRSC14114", "raw ATP luminescence, replicate 1": 65540, "raw ATP luminescence, replicate 2": 34990, "call": "inactive"}

The listing, repeating the preview:
{"predicted target": "CG42821 + CG42822", "amplicon": "DRSC13231", "raw ATP luminescence, replicate 1": 2.20e5, "raw ATP luminescence, replicate 2": 2.55e5, "call": "inactive"}
{"predicted target": "CG42821 + CG42822", "amplicon": "DRSC13232", "raw ATP luminescence, replicate 1": 1.90e5, "raw ATP luminescence, replicate 2": 2.40e5, "call": "inactive"}
{"predicted target": "Apc", "amplicon": "DRSC14114", "raw ATP luminescence, replicate 1": 65540, "raw ATP luminescence, replicate 2": 34990, "call": "inactive"}
{"predicted target": "CG7653", "amplicon": "DRSC01886", "raw ATP luminescence, replicate 1": 62440, "raw ATP luminescence, replicate 2": 56563, "call": "inactive"}
{"predicted target": "CG3520", "amplicon": "DRSC04383", "raw ATP luminescence, replicate 1": 56157, "raw ATP luminescence, replicate 2": 55587, "call": "inactive"}
{"predicted target": "CG14695", "amplicon": "DRSC14918", "raw ATP luminescence, replicate 1": 56263, "raw ATP luminescence, replicate 2": 40387, "call": "inactive"}
{"predicted target": "Mccc2", "amplicon": "DRSC04987", "raw ATP luminescence, replicate 1": 39117, "raw ATP luminescence, replicate 2": 62530, "call": "inactive"}
{"predicted target": "Lztr1", "amplicon": "DRSC18176", "raw ATP luminescence, replicate 1": 53340, "raw ATP luminescence, replicate 2": 50090, "call": "inactive"}
{"predicted target": "Lztr1", "amplicon": "DRSC18647", "raw ATP luminescence, replicate 1": 61250, "raw ATP luminescence, replicate 2": 58880, "call": "inactive"}
{"predicted target": "Not10", "amplicon": "DRSC14129", "raw ATP luminescence, replicate 1": 36477, "raw ATP luminescence, replicate 2": 22323, "call": "inactive"}
{"predicted target": "Ror", "amplicon": "DRSC03414", "raw ATP luminescence, replicate 1": 51263, "raw ATP luminescence, replicate 2": 92923, "call": "inactive"}
{"predicted target": "CG6847", "amplicon": "DRSC19213", "raw ATP luminescence, replicate 1": 1.92e5, "raw ATP luminescence, replicate 2": 2.23e5, "call": "inactive"}
{"predicted target": "CG6847", "amplicon": "DRSC20009", "raw ATP luminescence, replicate 1": 3.65e5, "raw ATP luminescence, replicate 2": 3.31e5, "call": "inactive"}
{"predicted target": "e", "amplicon": "DRSC16936", "raw ATP luminescence, replicate 1": 41203, "raw ATP luminescence, replicate 2": 49693, "call": "inactive"}
{"predicted target": "CG31643", "amplicon": "DRSC00906", "raw ATP luminescence, replicate 1": 2.83e5, "raw ATP luminescence, replicate 2": 2.71e5, "call": "inactive"}
{"predicted target": "barr", "amplicon": "DRSC03488", "raw ATP luminescence, replicate 1": 46710, "raw ATP luminescence, replicate 2": 37113, "call": "inactive"}
{"predicted target": "hwt", "amplicon": "DRSC19386", "raw ATP luminescence, replicate 1": 1.23e5, "raw ATP luminescence, replicate 2": 1.67e5, "call": "inactive"}
{"predicted target": "CG31259", "amplicon": "DRSC14366", "raw ATP luminescence, replicate 1": 56597, "raw ATP luminescence, replicate 2": 57100, "call": "inactive"}
{"predicted target": "Sar1", "amplicon": "DRSC17049", "raw ATP luminescence, replicate 1": 52813, "raw ATP luminescence, replicate 2": 54350, "call": "inactive"}
{"predicted target": "Spag1", "amplicon": "DRSC15331", "raw ATP luminescence, replicate 1": 57110, "raw ATP luminescence, replicate 2": 43050, "call": "inactive"}
{"predicted target": "Taf4", "amplicon": "DRSC11297", "raw ATP luminescence, replicate 1": 16713, "raw ATP luminescence, replicate 2": 19567, "call": "inactive"}
{"predicted target": "ear", "amplicon": "DRSC15675", "raw ATP luminescence, replicate 1": 46417, "raw ATP luminescence, replicate 2": 22387, "call": "inactive"}
{"predicted target": "CG8584", "amplicon": "DRSC07217", "raw ATP luminescence, replicate 1": 47867, "raw ATP luminescence, replicate 2": 80800, "call": "inactive"}
{"predicted target": "Tbc1d15-17", "amplicon": "DRSC00313", "raw ATP luminescence, replicate 1": 1.21e5, "raw ATP luminescence, replicate 2": 63860, "call": "inactive"}
{"predicted target": "CG6380", "amplicon": "DRSC02950", "raw ATP luminescence, replicate 1": 66750, "raw ATP luminescence, replicate 2": 80193, "call": "inactive"}
{"predicted target": "CG7900", "amplicon": "DRSC16336", "raw ATP luminescence, replicate 1": 45810, "raw ATP luminescence, replicate 2": 46303, "call": "inactive"}
{"predicted target": "bru3", "amplicon": "DRSC09280", "raw ATP luminescence, replicate 1": 96433, "raw ATP luminescence, replicate 2": 1.02e5, "call": "inactive"}
{"predicted target": "bru3", "amplicon": "DRSC09687", "raw ATP luminescence, replicate 1": 19607, "raw ATP luminescence, replicate 2": 22397, "call": "inactive"}
{"predicted target": "bru3", "amplicon": "DRSC09887", "raw ATP luminescence, replicate 1": 59280, "raw ATP luminescence, replicate 2": 59207, "call": "inactive"}
